Record: PubChem BioAssay AID1259308 (NCATS, 2017)
Here is an unselected part of about 59,000 deposited reagents. Over the whole deposit, about 1,510 (2.6%) got an active call. 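Calls use total luciferase alone and ignore viability, so some active siRNAs may act by altering cell number.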 Entries without a mark were called inactive. The numbers tell different reagents against one gene apart. Further read-outs or replicates are left out here. No sequences are given here.

Aim: 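Candidate targets for better recombinant protein yield in mammalian cells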 (primary screen)
Cells: human HEK293 embryonic kidney cells stably expressing firefly luciferase (HEK-CMV-Luc2-Hygro)
Reagents: single siRNA against human genes, 0.8 pmol siRNA per well
Duration: 72 h
Read-out: 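Luciferase light (ONE-Glo) measured on one replicate plate set and viability (CellTiter-Glo) on the other, scaled to a negative control siRNA, with robust z-scores and luciferase per cell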
Reading the numbers: total luciferase, z-score and total luciferase, % of control: higher = more reporter protein produced
Call rule: 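An siRNA counts as active if its total luciferase robust z-score exceeds 3; genes with two or more such siRNAs out of three were retested with fresh siRNAs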
Meaning of the calls: active = raised luciferase; inactive = no rise

Silencing of EDRF1 #1 resulted in: total luciferase, z-score -2.33; total luciferase, % of control 35.5.
Silencing of EDRF1 #2 came out at: total luciferase, z-score 0.368; total luciferase, % of control 89.2.
EDRF1 #3 scored total luciferase, z-score -1.78; total luciferase, % of control 46.4.
Knock-down of BTNL2 #1 gave: total luciferase, z-score -0.871; total luciferase, % of control 64.6.
For BTNL2 #2 the deposit lists total luciferase, z-score -0.25; total luciferase, % of control 76.9.
BTNL2 #3 scored total luciferase, z-score -0.878; total luciferase, % of control 64.4.
PRSS46P #1 showed total luciferase, z-score 0.29; total luciferase, % of control 87.7.
Against PRSS46P #2, the entry reads total luciferase, z-score -1.21; total luciferase, % of control 57.8.
After knock-down of PRSS46P #3, the record shows total luciferase, z-score 1.75; total luciferase, % of control 117.
Silencing of NSUN4 #1 gave: total luciferase, z-score -0.16; total luciferase, % of control 78.7.
Against NSUN4 #2, the entry reads total luciferase, z-score 0.418; total luciferase, % of control 90.2.
Against NSUN4 #3, the entry reads total luciferase, z-score 0.138; total luciferase, % of control 84.6.
For NAA20 #1, the entry reads total luciferase, z-score 1.6; total luciferase, % of control 114.
Against NAA20 #2 the deposit lists total luciferase, z-score 0.221; total luciferase, % of control 86.3.
After knock-down of NAA20 #3, the screen gave total luciferase, z-score 0.215; total luciferase, % of control 86.2.
Against DIPK1A #1 the deposit lists total luciferase, z-score 2.6; total luciferase, % of control 134.
DIPK1A #2 showed total luciferase, z-score 2.26; total luciferase, % of control 127.
Against DIPK1A #3 the deposit lists total luciferase, z-score -0.106; total luciferase, % of control 79.8.
Depletion of TRPC7 #1 gave: total luciferase, z-score 1.26; total luciferase, % of control 107.
With knock-down of TRPC7 #2 the results were total luciferase, z-score -0.59; total luciferase, % of control 70.1.
With knock-down of TRPC7 #3 the results were total luciferase, z-score -1.06; total luciferase, % of control 60.8.
LINC01433 #1 showed total luciferase, z-score -0.55; total luciferase, % of control 71.
Knock-down of LINC01433 #2 gave: total luciferase, z-score -0.538; total luciferase, % of control 71.2.
Against LINC01433 #3 the deposit lists total luciferase, z-score -3.12; total luciferase, % of control 19.8.
After knock-down of POLR2J #1, the screen gave total luciferase, z-score -1.22; total luciferase, % of control 57.6.
After knock-down of POLR2J #2, the record shows total luciferase, z-score 2.77; total luciferase, % of control 137.
POLR2J #3 scored total luciferase, z-score -0.19; total luciferase, % of control 78.1.
Knock-down of RNPEPL1 #1 resulted in: total luciferase, z-score -0.518; total luciferase, % of control 71.6.
RNPEPL1 #2 gave total luciferase, z-score 0.477; total luciferase, % of control 91.4.
Knock-down of RNPEPL1 #3 came out at: total luciferase, z-score 1.19; total luciferase, % of control 106.
With knock-down of KLHL31 #1, the record shows total luciferase, z-score 0.246; total luciferase, % of control 86.8.
KLHL31 #2 gave total luciferase, z-score 1.67; total luciferase, % of control 115.
With knock-down of KLHL31 #3, the record shows total luciferase, z-score -1.27; total luciferase, % of control 56.6.
After knock-down of P2RY1 #1, the record shows total luciferase, z-score 0.534; total luciferase, % of control 92.5.
After knock-down of P2RY1 #2 the results were total luciferase, z-score 0.264; total luciferase, % of control 87.1.
Silencing of P2RY1 #3 gave: total luciferase, z-score -1.13; total luciferase, % of control 59.5.
Against FSAF1 #1 the deposit lists total luciferase, z-score -1.83; total luciferase, % of control 45.5.
FSAF1 #2 scored total luciferase, z-score -0.758; total luciferase, % of control 66.8.
For FSAF1 #3, the values are total luciferase, z-score -0.431; total luciferase, % of control 73.3.
After knock-down of FREM1 #1 the results were total luciferase, z-score 2.73; total luciferase, % of control 136.
For FREM1 #2 the deposit lists total luciferase, z-score -0.689; total luciferase, % of control 68.2.
Silencing of FREM1 #3 gave: total luciferase, z-score -0.832; total luciferase, % of control 65.3.
